# In the supplement of paper PMC4683952:
# Structures can show the parent of a compound that is named as a salt. This is one part of the list. Cut-off read from the data, not from the text of the source: active = 2.5 or more and inactive = the rest. Repeats in this data set agree poorly, so a single value says little.
# Test system: Lgr5 (MarsCy1-Lgr5-EGFP, U2OS)
# Assay: cell-surface Lgr5 expression (SCi1 fluorescence, background-subtracted) relative to WT control (fold of WT control); higher = more Lgr5 at the plasma membrane
# Settings: U2OS MarsCy1-Lgr5-EGFP stable; treatment time: overnight; library: Prestwick; 20 µM
row,SMILES,cell-surface Lgr5 expression
1,CN1CCCN=C1/C=C/c1cccc(O)c1 [Oxantel pamoate],inactive: 1.01
2,CC(N)CCCC(C)(C)O (stereo unspecified) [Heptaminol hydrochloride],inactive: 1.44
3,C[C@@H]1CCC[C@H](C)N1 [(cis-) Nanophine],inactive: 2.2
4,CC1(C)S[C@@H]2[C@H](NC(=O)C3(N)CCCCC3)C(=O)N2[C@H]1C(=O)O [Cyclacillin],inactive: 1.27
5,CCc1cccc(CC)c1NC(=O)CN(CC(=O)O)CC(=O)O [Etifenin],active: 4.47
6,CN/C(=N\CCSCc1nc[nH]c1C)NC#N [Cimetidine],inactive: 1.24
7,O=C(O)c1cc(/N=N/c2ccc(S(=O)(=O)Nc3ccccn3)cc2)ccc1O [Sulfasalazine],inactive: 2.08
8,Nc1ncnc2c1ncn2C1OC(COP(=O)(O)O)C(O)C1O (stereo unspecified) [Adenosine 5'-monophosphate monohydrate],active: 2.63
9,CN1CCCN(C(c2ccccc2)c2ccc(Cl)cc2)CC1 (stereo unspecified) [Homochlorcyclizine dihydrochloride],inactive: 2.03
10,C[C@@H]1C[C@H]2[C@@H]3CCC4=CC(=O)C=C[C@]4(C)[C@@]3(Cl)[C@@H](O)C[C@]2(C)[C@@]1(OC(=O)c1ccco1)C(=O)CCl [Mometasone furoate],active: 3.88
11,CCCCc1ccc2[nH]c(NC(=O)OC)nc2c1 [Parbendazole],inactive: 1.34
12,CC1(C)S[C@@H]2[C@H](NC(=O)[C@H](N)c3ccccc3)C(=O)N2[C@H]1C(=O)O [Ampicillin trihydrate],inactive: 1.36
13,O=c1n(CCCN2CCN(c3cccc(Cl)c3)CC2)nc2ccccn12 [Trazodone hydrochloride],inactive: 1.43
14,C/C=C(/C(=C/C)c1ccc(O)cc1)c1ccc(O)cc1 [Dienestrol],inactive: 2.17
15,O=C(O)c1ccccc1OP(=O)(O)O [Fosfosal],inactive: 1.71
16,COc1ccc2cc([C@H](C)C(=O)O)ccc2c1 [Naproxen],inactive: 1.44
17,Nc1cc(N2CCCCC2)nc(N)[n+]1[O-] [Minoxidil],inactive: 1.17
18,C=C(C)[C@@H]1CC[C@]2(CO)CC[C@]3(C)[C@H](CC[C@@H]4[C@@]5(C)CC[C@H](O)C(C)(C)[C@@H]5CC[C@]43C)[C@@H]12 [Betulin],inactive: 0.725
19,CC(=O)O[C@H]1C(=O)[C@@]2(C)[C@H]([C@H](OC(=O)c3ccccc3)[C@]3(O)C[C@H](OC(=O)[C@H](O)[C@@H](NC(=O)c4ccccc4)c4ccccc4)C(C)=C1C3(C)C)[C@]1(OC(C)=O)CO[C@@H]1C[C@@H]2O [Paclitaxel],inactive: 1.03
20,NC(=O)c1cnccn1 [Pyrazinamide],inactive: 2.23
21,N/C(=N\C(=O)c1nc(Cl)c(N)nc1N)NCc1ccccc1 [Benzamil hydrochloride],inactive: 1.88
22,O=C(CCNNC(=O)c1ccncc1)NCc1ccccc1 [Nialamide],inactive: 0.911
23,Cc1nc2ccccn2c(=O)c1CCN1CCC(C(=O)c2ccc(F)cc2)CC1 [Pirenperone],active: 3.24

row,SMILES,cell-surface Lgr5 expression
1,CN1C(=O)CC[C@H]1c1cccnc1 [Cotinine (-)],inactive: 1.65
2,CC[C@@H]1C(=O)OC[C@@H]1Cc1cncn1C [Pilocarpine nitrate],inactive: 2.11
3,CC(O)Cn1cnc2c1c(=O)n(C)c(=O)n2C (stereo unspecified) [Proxyphylline],active: 3.03
4,CC(C)NC[C@@H](O)COc1ccc(CC(N)=O)cc1 [(R)-(+)-Atenolol],inactive: 1.47
5,NS(=O)(=O)c1cc2c(cc1C(F)(F)F)NCNS2(=O)=O [Hydroflumethiazide],inactive: 1.06
6,CC(=O)NS(=O)(=O)c1ccc(N)cc1 [Sulfacetamide sodic hydrate],inactive: 1.04
7,COc1cccc2c1C(=O)c1c(O)c3c(c(O)c1C2=O)C[C@@](O)(C(C)=O)C[C@@H]3O[C@H]1C[C@H](N)[C@H](O)[C@H](C)O1 [Daunorubicin hydrochloride],inactive: 1.84
8,CO[C@@H]1[C@@H](O[C@@H]2O[C@H](C)[C@@H](O[C@H]3C[C@@](C)(O)[C@@H](OC(=O)CC(C)C)[C@H](C)O3)[C@H](N(C)C)[C@H]2O)[C@@H](CC=O)C[C@@H](C)[C@@H](O)/C=C/C=C/C[C@@H](C)OC(=O)C[C@H]1OC(C)=O [Josamycin],inactive: 0.851
9,CCC(=O)O[C@@H]1CC(=O)O[C@H](C)C/C=C/C=C/[C@H](O)[C@H](C)C[C@H](CC=O)[C@H](O[C@@H]2O[C@H](C)[C@@H](O[C@H]3C[C@@](C)(O)[C@@H](OC(=O)CC)[C@H](C)O3)[C@H](N(C)C)[C@H]2O)[C@H]1OC [Midecamycin],inactive: 1.07
10,CCN(CC)CC(=O)Nc1c(C)cccc1C [Lidocaïne hydrochloride],inactive: 1.72
11,COC(=O)C1=CO[C@@H](C)[C@H]2CN3CCc4c([nH]c5ccccc45)[C@@H]3C[C@H]12 [Ajmalicine hydrochloride],inactive: 1.66
12,CC(=O)OCC(=O)[C@@]12OC(C)(C)O[C@@H]1C[C@H]1[C@@H]3C[C@H](F)C4=CC(=O)C=C[C@]4(C)[C@@]3(F)[C@@H](O)C[C@@]12C [Fluocinonide],active: 3.1
13,c1ccc2c(CC3=NCCN3)cccc2c1 [Naphazoline hydrochloride],inactive: 1.22
14,CN1CCN(C(c2ccccc2)c2ccccc2)CC1 [Cyclizine hydrochloride],inactive: 1.99
15,OCCN(CCO)c1nc(N2CCCCC2)c2nc(N(CCO)CCO)nc(N3CCCCC3)c2n1 [Dipyridamole],inactive: 0.97
16,O=C(O)c1ccccc1C(=O)Nc1ccc(S(=O)(=O)Nc2nccs2)cc1 [Phthalylsulfathiazole],inactive: 1.29
17,CN1CCC(=C2c3ccccc3Sc3ccccc32)CC1 [Pimethixene maleate],inactive: 1.51
18,N[C@@H](Cc1cc(I)c(Oc2ccc(O)c(I)c2)c(I)c1)C(=O)O [Liothyronine],inactive: 1.91
19,NC[C@@H]1O[C@@H](O[C@H]2[C@H](O)[C@@H](O[C@H]3O[C@H](CO)[C@@H](O)[C@H](N)[C@H]3O)[C@H](N)C[C@@H]2N)[C@@H](O)[C@H](O)[C@H]1O [Kanamycin A sulfate],inactive: 1.59
20,CC1CC(OC(=O)c2ccccc2O)CC(C)(C)C1 (stereo unspecified) [Homosalate],inactive: 1.01
21,C[C@H](CCC(=O)O)[C@H]1CC[C@H]2[C@@H]3[C@@H](O)C[C@@H]4C[C@H](O)CC[C@]4(C)[C@H]3CC[C@]12C [Urosiol],inactive: 1.66
22,C#C[C@]1(O)CC[C@H]2[C@@H]3CCC4=CCCC[C@@H]4[C@H]3CC[C@@]21C [Lynestrenol],inactive: 0.896
23,O=C(CCCN1CCN(c2ccccn2)CC1)c1ccc(F)cc1 [Azaperone],inactive: 1.11

# Gathered by group: those above with an aryl methoxy group (two)
row,SMILES,cell-surface Lgr5 expression
16,COc1ccc2cc([C@H](C)C(=O)O)ccc2c1 [Naproxen],inactive: 1.44
7,COc1cccc2c1C(=O)c1c(O)c3c(c(O)c1C2=O)C[C@@](O)(C(C)=O)C[C@@H]3O[C@H]1C[C@H](N)[C@H](O)[C@H](C)O1 [Daunorubicin hydrochloride],inactive: 1.84
